PubChem BioAssay AID1224830 | NIAID | 2016

Assay: 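Genes whose knock-down alters the TNF-alpha reporter response to LPS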 (primary screen)
System: human THP-1 monocytic leukaemia cells, TNF dual-luciferase reporter clone, PMA-differentiated to macrophage-like cells
Knock-down reagent: siRNA pool against human genes, 50 nM
Time to read-out: LPS for 4 h, given about 3 days after siRNA transfection
Challenge: bacterial LPS (TLR4 ligand), 10 ng/ml
Measured: 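TNF firefly reporter luminescence divided by renilla, normalised to the plate median, then turned into a robust z-score for each replicate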
Direction: TNF reporter robust z-score: higher = stronger TNF reporter response to LPS
Call rule: 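Each well counts as active if its z-score is over 2.8 or under -1.5; controls are left without a call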
The whole screen tested about 18,000 reagents; shown is a random part of them. About 2,900 of all reagents (16%) count as active. 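Calls are made per well; low scores hint the gene aids the LPS response, high scores that it dampens it.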 Repeated entries: four replicate wells of each siRNA pool. No sequences are given here.

LGR5 | TNF reporter robust z-score: -0.46; Call: inactive
LGR5 | TNF reporter robust z-score: -0.67; Call: inactive
LGR5 | TNF reporter robust z-score: -0.42; Call: inactive
LGR5 | TNF reporter robust z-score: -0.45; Call: inactive
CD82 | TNF reporter robust z-score: -0.52; Call: inactive
CD82 | TNF reporter robust z-score: 0.92; Call: inactive
CD82 | TNF reporter robust z-score: 1.32; Call: inactive
CD82 | TNF reporter robust z-score: 1.23; Call: inactive
TEX14 | TNF reporter robust z-score: -1.03; Call: inactive
TEX14 | TNF reporter robust z-score: -0.25; Call: inactive
TEX14 | TNF reporter robust z-score: -0.46; Call: inactive
TEX14 | TNF reporter robust z-score: -0.41; Call: inactive
IFI27 | TNF reporter robust z-score: 1; Call: inactive
IFI27 | TNF reporter robust z-score: 0.55; Call: inactive
IFI27 | TNF reporter robust z-score: -0.41; Call: inactive
IFI27 | TNF reporter robust z-score: 0.01; Call: inactive
NAGLU | TNF reporter robust z-score: 0.01; Call: inactive
NAGLU | TNF reporter robust z-score: 0.02; Call: inactive
NAGLU | TNF reporter robust z-score: 0.28; Call: inactive
NAGLU | TNF reporter robust z-score: 1.53; Call: inactive
ENPP5 | TNF reporter robust z-score: -0.27; Call: inactive
ENPP5 | TNF reporter robust z-score: 1.68; Call: inactive
ENPP5 | TNF reporter robust z-score: -0.64; Call: inactive
EIF4E2 | TNF reporter robust z-score: -0.28; Call: inactive
EIF4E2 | TNF reporter robust z-score: -0.25; Call: inactive
EIF4E2 | TNF reporter robust z-score: -1.06; Call: inactive
EIF4E2 | TNF reporter robust z-score: -0.62; Call: inactive
CHRM1 | TNF reporter robust z-score: -0.56; Call: inactive
CHRM1 | TNF reporter robust z-score: -0.02; Call: inactive
CHRM1 | TNF reporter robust z-score: 0.26; Call: inactive
FABP7 | TNF reporter robust z-score: -0.93; Call: inactive
FABP7 | TNF reporter robust z-score: 0.59; Call: inactive
FABP7 | TNF reporter robust z-score: -0.6; Call: inactive
FABP7 | TNF reporter robust z-score: 0.43; Call: inactive
